PubChem BioAssay AID540256 (National Center for Advancing Translational Sciences (NCATS), 2011)
Hit rate of the full screen: of about 300,000 compounds, about 3,700 (1.2%) were called active. Inconclusive means that the source gave no clear call. Such entries were picked first, then a sample of the others. Calls come from the whole dose curve; tested in HEK293 cells. Where the call is inconclusive, the potency comes from a doubtful curve fit.

Test: qHTS for Inhibitors of binding or entry into cells for Lassa Virus; note: nearly all actives have a fitted effect of over 50% in size
Conditions: Lassa virus pseudotype entry inhibition, cell reporter; series mostly up to 37.9 µM
Potency is the fitted concentration of half-maximal effect.

SMILES	Potency
Cc1cc(NS(=O)(=O)c2ccc(NC(=O)c3cc(-c4cccnc4)nc4ccc(Cl)cc34)cc2)no1	inactive
COc1ccc(CC(=O)Nc2cc(S(=O)(=O)N3CCCCC3)ccc2C)cc1	inconclusive: 35.5 µM [inhibitor, single point]
O=S(=O)(c1ccccc1)c1nc(-c2ccco2)oc1N1CCCCC1	inconclusive: 8.91 µM [inhibitor, partial curve]
CC(C)c1ccc(NC(=O)CSc2ncccc2C(=O)Oc2cccc([N+](=O)[O-])c2)cc1	inconclusive: 7.94 µM [inhibitor, partial curve, poor fit]
OCC1(Cc2ccccc2F)CCCN(CC2CCCCC2)C1 (stereo unspecified)	inconclusive: 4.47 µM [inhibitor, full curve, poor fit]
C=C(C#Cc1ccc(OC)cc1)CCN1C=C(C(=O)OCC)C(c2ccccc2)NC1=O (stereo unspecified)	inconclusive: 5.31 µM [activator, single point]
COc1cc(NC(=O)c2ccccc2)c(OC)cc1NC(=O)CN1CCN(c2ccccn2)CC1	inconclusive: 35.5 µM [inhibitor, single point]
CC(C)CCNC(=O)C1CCN(C(=O)N2CCOc3ccc(Cl)cc32)CC1	inconclusive: 11.2 µM [inhibitor, partial curve, poor fit]
CCN(CC)CC1C(=O)N(c2ccc(OC)cc2)C1c1ccccc1 (stereo unspecified)	inconclusive: 5.62 µM [inhibitor, partial curve]
Cc1cc(OCC(=O)Nc2ccc(Br)cc2)cc2c1C(=O)CC(C)(C)O2	inconclusive: 31.6 µM [inhibitor, single point]
CC1(C)CC(NC(=O)Cc2ccc(Cl)cc2)CC(C)(C)N1	inconclusive: 15.8 µM [activator, single point]
COC(=O)c1ccc(NC(=O)c2sc3nc(-c4ccccc4)cn3c2C)cc1	inconclusive: 0.291 µM [inhibitor, full curve]
O=C(Cc1c(O)c2ccccc2[nH]c1=O)NCc1cccc(F)c1	inconclusive: 29.1 µM [activator, partial curve, poor fit]
Cc1ccc(CNC(=O)C(=O)NCC(c2ccco2)S(=O)(=O)c2cccs2)cc1 (stereo unspecified)	inconclusive: 25.1 µM [inhibitor, single point]
CN1CCN(c2nc(-c3ccccc3)nc(-c3ccccc3)c2C#N)CC1	inconclusive: 31.6 µM [inhibitor, single point]
O=C(CN1CCN(S(=O)(=O)c2ccc(F)cc2)CC1)Nc1cc(C(F)(F)F)ccc1Cl	inconclusive: 31.6 µM [inhibitor, single point]
CSc1nnc2c3ccccc3c3ccccc3c2n1	inactive
COc1ccc(CCNC(=O)c2ccc(CS(=O)(=O)Cc3cccc(C)c3)o2)cc1OC	inconclusive: 35.5 µM [inhibitor, single point]
Cc1ccc(N(C)S(=O)(=O)c2cccc(C(=O)Nc3ccc(C)cn3)c2)cc1	inconclusive: 11.2 µM [inhibitor, single point]
CCOC(=O)c1sc(N/N=C/c2ccccc2)nc1C	inconclusive: 1.78 µM [inhibitor, full curve, poor fit]
CCC(=O)Oc1c(S(=O)(=O)c2ccc(C)cc2)c(C)nn1C(C)(C)C	inconclusive: 35.5 µM [inhibitor, single point]
COc1ccccc1Nc1nn2c(=O)c3ccc(C(=O)NCc4ccc(F)cc4)cc3nc2s1	inconclusive: 1.78 µM [inhibitor, partial curve, poor fit]

SMILES	Potency
COc1ccc(NC(=O)c2c(C)oc3ccc(O)c(CN4CCC(C)CC4)c23)cc1	inconclusive: 35.5 µM [inhibitor, single point]
CCN(CC)S(=O)(=O)c1ccc(F)c(C(=O)OC2CC(C)OC2=O)c1 (stereo unspecified)	inconclusive: 0.501 µM [inhibitor, full curve, poor fit]
C=CCn1c(SCC(=O)Nc2ccc(F)cc2)nnc1-c1cnccn1	inconclusive: 12.6 µM [activator, partial curve, poor fit]
COC(=O)C1=C(C)N(Cc2ccco2)C(=O)/C1=C\c1ccc([N+](=O)[O-])cc1	inconclusive: 10 µM [inhibitor, single point]
Nc1ccccc1-c1nnc(-c2ccccc2N)n1N	inconclusive: 35.5 µM [inhibitor, single point]
CCN(C(=O)CCN1C(=O)/C(=C/c2ccccc2)SC1=S)C1CCS(=O)(=O)C1 (stereo unspecified)	inconclusive: 22.4 µM [inhibitor, single point]
CC(/C=N/NC(=O)c1nnn(-c2nonc2N)c1C)=C\c1ccccc1	inactive
NC(=O)c1ccc(NS(=O)(=O)c2ccccc2F)cc1	inconclusive: 3.26 µM [activator, full curve, poor fit]
CCN(CC)S(=O)(=O)c1ccc(OC)c(NC(=O)COc2ccc3c(C)cc(=O)oc3c2)c1	inactive
C=C(C)CSc1nc2sc3c(c2c(=O)n1-c1ccccc1)CCC(C)C3 (stereo unspecified)	inactive
CCCCCn1c(CNC(=O)c2cccs2)nc2ccccc21	inactive
CCN1CCN(c2ncnc3c2cnn3-c2ccc(C)cc2)CC1	inconclusive: 7.08 µM [activator, partial curve, poor fit]
Cc1ccc(S(=O)(=O)NN2C(=O)c3ccccc3NC2c2ccccn2)cc1 (stereo unspecified)	inconclusive: 35.5 µM [inhibitor, single point]
COc1cc(C2CC(=O)N(c3ccccc3)C3=C2C(=O)OC3)cc(OC)c1OC (stereo unspecified)	inactive
CCOC(=O)c1c(NC(=S)NC(=O)c2ccc(Cn3cc(Cl)cn3)o2)sc2c1CCCCC2	inconclusive: 15.8 µM [inhibitor, single point]
c1ccc(OCCCc2nc(-c3ccncc3)no2)cc1	inactive
COc1ccc(C2=NN(C(=O)c3cccs3)C(c3ccc(OC)cc3)C2)cc1 (stereo unspecified)	inconclusive: 35.5 µM [inhibitor, single point]
O=C(CCS(=O)(=O)c1ccccc1)NC12CC3CC(CC(C3)C1)C2	inconclusive: 1.26 µM [activator, full curve, poor fit]
O=[N+]([O-])c1cc(C(F)(F)F)ccc1NCCNC(=S)Nc1ccc(Cl)cc1	inconclusive: 7.3 µM [inhibitor, partial curve]
COc1ccc([N+](=O)[O-])c(OC)c1C(=O)NC(=O)Nc1c(F)cc(F)cc1F	inactive
CCOC(=O)c1ccc(NC(=S)N(CCCN2CCN(CC)CC2)Cc2ccco2)cc1	inconclusive: 6.31 µM [inhibitor, single point]
COc1ccc(-c2n[nH]c3c2C(c2ccc(O)cc2)N(c2ccc(Br)cc2)C3=O)cc1 (stereo unspecified)	inactive

SMILES	Potency
CCc1ccc(NC(=O)N2CCc3ccccc3C2)cc1	inconclusive: 35.5 µM [inhibitor, single point]
CN(C)c1ccc(CC2C(=O)Nc3ccccc32)cc1 (stereo unspecified)	inactive
CCOC(=O)c1c(NC(=O)CN(CC)CC)sc2c1CCN(C(=O)OCC)C2	inconclusive: 29.1 µM [inhibitor, single point]
CCNC(=S)NNC(=O)c1cc(C)on1	inactive
Cc1ccc(S(=O)(=O)N2CCN(c3ccc(C(F)(F)F)cc3[N+](=O)[O-])CC2)cc1	inconclusive: 8.91 µM [inhibitor, single point]
CCOC(=O)c1sc2ncn(CC(=O)Nc3ccc(C)cc3Br)c(=O)c2c1C	inactive
COC(=O)C1CC(C(=O)OC)C2C(C(=O)OC)CC(C(=O)OC)C12 (stereo unspecified)	inconclusive: 25.1 µM [activator, partial curve, poor fit]
CCOc1cc(C(=O)N2CCc3c([nH]c4ccccc34)C2c2ccccc2)cc(OCC)c1OCC (stereo unspecified)	inconclusive: 10 µM [inhibitor, partial curve, poor fit]
O=C(Cc1ccccc1)Nc1ccc(N2CCCCC2)cc1	inactive
O=C(O)Cc1csc(-c2cccc(F)c2)n1	inconclusive: 10 µM [activator, partial curve]
CCC1CCCCN1C(=O)Cn1c(=O)n(CCC(=O)NCc2ccco2)c(=O)c2sccc21 (stereo unspecified)	inconclusive: 2.51 µM [inhibitor, full curve, poor fit]
CC(C)c1ccc(NC(=O)c2cc(S(=O)(=O)NCc3ccccc3Cl)ccc2F)cc1	inconclusive: 35.5 µM [inhibitor, single point]
CCOC(=O)c1cc(CC)sc1NC(=O)C1CC1	inactive
Cc1ccc(NC(=S)N2CCN(S(C)(=O)=O)CC2)cc1Cl	inactive
S=c1[nH]nc(-c2cc3c(s2)-c2ccccc2CC3)o1	inactive
Cc1cccc(-n2c(C)cc(C)c(C#N)c2=O)c1	inconclusive: 5.01 µM [inhibitor, partial curve, poor fit]
O=C(NNC(=O)c1ccccc1[N+](=O)[O-])c1cnccn1	inactive
CC1/C(=N/O)C(CN(C)C)C2CC1C2(C)C (stereo unspecified)	inactive
CC(Oc1ccc(Cl)cc1Cl)c1nc(-c2ccc(NC(=O)c3cccnc3)cc2)no1 (stereo unspecified)	inconclusive: 25.1 µM [inhibitor, single point]
CCOC(=O)C(Cc1c[nH]c2ccccc12)NC(=O)COc1ccc(Cl)c(C)c1 (stereo unspecified)	inconclusive: 1.58 µM [inhibitor, full curve, poor fit]
CCOc1nc(NC(=O)NS(=O)(=O)Oc2ccccc2)nc(-c2ccccc2)n1	inconclusive: 35.5 µM [activator, single point]
COCCN(C(=O)CCC(=O)Nc1nccs1)C(C(=O)NC(C)(C)C)c1ccc(C)cc1 (stereo unspecified)	inactive

Reformatted comma-delimited: entries from further up
SMILES,Potency
CN(C)c1ccc(CC2C(=O)Nc3ccccc32)cc1 (stereo unspecified),inactive
CCOC(=O)c1c(NC(=O)CN(CC)CC)sc2c1CCN(C(=O)OCC)C2,"inconclusive: 29.1 µM [inhibitor, single point]"
CCNC(=S)NNC(=O)c1cc(C)on1,inactive
Cc1ccc(S(=O)(=O)N2CCN(c3ccc(C(F)(F)F)cc3[N+](=O)[O-])CC2)cc1,"inconclusive: 8.91 µM [inhibitor, single point]"
CCOC(=O)c1sc2ncn(CC(=O)Nc3ccc(C)cc3Br)c(=O)c2c1C,inactive
